# Source: article PMC3103430, “RecA Proteins from Deinococcus geothermalis and Deinococcus murrayi - Cloning, Purification and Biochemical Characterisation” (BMC Molecular Biology, 2011)
# Assays:
# [1] = target: DgeRecA (Deinococcus geothermalis DSM 11302) (UniProt Q1IWF2); test: competition with a labelled probe; conditions: with oligo(dT)35 in same tube, 0 or 10 mM Mg2+, ATPgS + ATP; 20 mM potassium phosphate pH 7.5, 0-10 mM MgCl2, 110 uM ATPgS + 300 uM ATP (ssDNA, 9 uM RecA) or 180 uM ATPgS + 500 uM ATP (dsDNA, 12 uM RecA); recombinant protein; residues 1-358; probe letters rebuilt from the primers and the genome
# [2] = target: DmuRecA (Deinococcus murrayi DSM 11303) (UniProt E7CG23); test: competition with a labelled probe; conditions: with oligo(dT)35 in same tube, 0 or 10 mM Mg2+, ATPgS + ATP; 20 mM potassium phosphate pH 7.5, 0-10 mM MgCl2, 110 uM ATPgS + 300 uM ATP (ssDNA, 9 uM RecA) or 180 uM ATPgS + 500 uM ATP (dsDNA, 12 uM RecA); recombinant protein; residues 1-359; probe letters rebuilt from the primers and the genome
# [3] = target: DgeRecA (Deinococcus geothermalis DSM 11302) (UniProt Q1IWF2); test: EMSA; conditions: ATPgS + ATP, 20 mM potassium phosphate pH 7.5, 0-10 mM MgCl2, 110 uM ATPgS + 300 uM ATP (ssDNA, 9 uM RecA) or 180 uM ATPgS + 500 uM ATP (dsDNA, 12 uM RecA), recombinant protein, residues 1-358
# [4] = target: DmuRecA (Deinococcus murrayi DSM 11303) (UniProt E7CG23); test: EMSA; conditions: ATPgS + ATP, 20 mM potassium phosphate pH 7.5, 0-10 mM MgCl2, 110 uM ATPgS + 300 uM ATP (ssDNA, 9 uM RecA) or 180 uM ATPgS + 500 uM ATP (dsDNA, 12 uM RecA), recombinant protein, residues 1-359
# [5] = no Mg2+, probe letters rebuilt from the primers and the genome
# [6] = protein preincubated 10 s at 80 C, assayed at 37 C with 10 mM Mg2+, label: 5'-fluorescein, single-stranded DNA
Sequence,binding result [1],binding result [2],"binding result ([3]; 10 mM Mg2+, less efficient than DmuRecA, probe letters rebuilt from the primers and the genome)","binding result [3, 5]","binding result ([4]; 10 mM Mg2+, more efficient than DgeRecA, probe letters rebuilt from the primers and the genome)","binding result [4, 5]","binding result ([3]; 10 mM Mg2+, 58 C (very slight), label: 5'-fluorescein, single-stranded DNA)","binding result ([3]; 10 mM Mg2+, above 58 C (59.4-75 C), label: 5'-fluorescein, single-stranded DNA)","binding result [3, 6]","binding result ([4]; 10 mM Mg2+, 54.5 C (very slight), label: 5'-fluorescein, single-stranded DNA)","binding result ([4]; 10 mM Mg2+, above 54.5 C (55.6-65 C), label: 5'-fluorescein, single-stranded DNA)","binding result [4, 6]"
GGACAAGGTCGCTGAAGCCTTCGGGAAGCTGACCACAGACCCGACGTCGGGGCTGACGGCGATGGCTCGCCAGTTCCATAACGTGTCGGCGGAGCAGATTGCGTATGTTGCTCAGTTGCAGCGTTCCGGCGATGAAGCCGGGGCATTGCAGGCGGCGAACGAGGCCGCAACGAAAGGGTTTGATGACCAGACCCGCCGCCTGAAAGAGAACATGGGCACGCTGGAGACCTGGGCAGACAGGACTGCGCGGGCATTCAAATCCATGTGGGATGCGGTGCTGGATATTGGTCGTCCTGATACCGCGCAGGAGATGCTGATTAAGGCAGAGGCTGCGTATAAGAAAGCAGACGACATCTGGAATCTGCGCAAGGATGATTATTTTGTTAACGATGAAGCGCGGGCGCGTTACTGGGATGATCGTGAAAAGGCCCGTCTTGCGCTTGAAGCCGCCCGAAAGAAGGCTGAGCAGCAGACTCAACAGGACAAAAATGCGCAGCAGCAGAGCGATACCGAAGCGTCACGGCTGAAATATACCGAAGAGGCGCAGAAGGCTTACGAACGGCTGCAGACGCCGCTGGAGAAATATACCGCCCGTCAGGA (double strand) [600 bp PCR product of lambda DNA],binds more weakly,binds more weakly,binds,binds more weakly,binds,binds more weakly,,,,,,
TTTTTTTTTTTTTTTTTTTTTTTTTTTTTTTTTTT [oligo(dT)35],,,,,,,binds more weakly,no binding,no binding,binds more weakly,no binding,no binding

# For part of these data: No signal at the amounts used counts as a negative. For part of these data: At least one verdict was read from the data and is not stated in words by the source. Construct, isoform or probe ends are uncertain for at least one entry. The comparison behind a weaker result is the experiment's own reference, which may not be listed here.
